Measured values as given in publication PMC7865352.
The exact form of at least one protein or probe is not confirmed. The comparison behind a weaker result is the experiment's own reference, which may not be listed here. At least one verdict rests on a figure or table, not on a statement of the authors.

Biological target: GST-SH2 (c-Src SH2 domain) (human) (UniProt P12931)
Assay: ELONA
Conditions: recombinant protein; label: digoxigenin; single-stranded DNA; letters put together from the description

Row | Sequence | binding result
1 | GTTGCTCGTATTTAGGGCCAACGCAACCCGCAAACCCACCCACCCAACCCACCACCGCACACCAGTCTTCATCCGC [ApSH2.17R] | binds more weakly
2 | GTTGCTCGTATTTAGGGCGGGGGGGCGGGGGAGGAGGTGGCGGGAGTATCCATTGTCTACACCAGTCTTCATCCGC [ApSH2.14R] | binds more weakly
